Source: USRE50096E1, “Nanoemulsion compositions of taxoid drugs, and methods for the use thereof to target cancer cells and cancer stem cells” (TargaGenix, Inc., priority 2016, dated 2024)
At least one structure is not confirmed: it was looked up by name or label, or the drawing left a doubt.

What was measured:
[1] = cited from earlier work
[2] = system: human CFPAC-1 ductal pancreatic adenocarcinoma xenograft; assay: CFPAC-1 pancreatic adenocarcinoma xenograft in SCID mice

Row | Structure (SMILES) | toxicity, fold less than free SBT-1214 [1] [fold] | complete regression and cure ([2]; 240 mg/kg total dose) [in 5] | complete regression and cure ([2]; 300 mg/kg total dose) [in 4] | cured ([2]; 120 mg/kg total dose) [in 6] | tumor regressions ([2]; 120 mg/kg total dose) [in 6 mice]
1 | CC/C=C\C/C=C\C/C=C\C/C=C\C/C=C\C/C=C\CCC(=O)O[C@@H](C(=O)O[C@H]1C[C@@]2(O)[C@@H](OC(=O)c3ccccc3)[C@@H]3[C@]4(OC(C)=O)CO[C@@H]4C[C@H](O)[C@@]3(C)C(=O)[C@H](OC(=O)C3CC3)C(=C1C)C2(C)C)[C@H](C=C(C)C)NC(=O)OC(C)(C)C [DHA-SBT-1214] | 10 | 5 | 4 |  | 
2 | CC(=O)O[C@@]12CO[C@@H]1C[C@H](O)[C@@]1(C)C(=O)[C@H](OC(=O)C3CC3)C3=C(C)[C@@H](OC(=O)[C@H](O)[C@H](C=C(C)C)NC(=O)OC(C)(C)C)C[C@@](O)([C@@H](OC(=O)c4ccccc4)[C@H]21)C3(C)C [SBT-1214] |  |  |  | 1 | 6
